From PubChem BioAssay AID2685 (National Center for Advancing Translational Sciences (NCATS), 2010)
Some of the results follow. These are further read-outs of the screen, such as a control signal, another cell line or another target. No call is given for them. Compounds called inactive in the main read-out are mostly missing here. The note in brackets gives the kind of curve behind each potency; many fits are weak.

Assay: qHTS Assay for Lipid Storage Modulators in Drosophila S3 Cells;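 for cell number change: cells counted by Cell Tracker Red CMTPX staining in the red channel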
Settings: BODIPY lipid droplet fluorescence, 18-24 h; for cell number change: measured here: cell count max response, cells fed with added oleic acid
Procedure, shortened: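 Drosophila S3 cells loaded with oleic acid (400 uM, as added) and compounds at several concentrations; lipid droplets imaged by 488-nm laser-scanning cytometry, 500–530 nm intensity and object ratio to cell channel. Percent activity normalized to 20 uM Triacsin C.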

[1] = measured here: lipid fluorescence (Fed channel) AC50, cells fed with added oleic acid
[2] = measured here: cell number channel AC50, cells fed with added oleic acid

| SMILES | cell number change [%] | AC50 [1] | AC50 [2] |
| --- | --- | --- | --- |
| CCCOC(=O)c1ccc(NC(=O)c2cn(CC)c3nc(C)ccc3c2=O)cc1 | -7.89 | – | – |
| Cc1c(C(=O)NC(Cc2ccccc2)c2nc3ccccc3[nH]2)cccc1[N+](=O)[O-] (configuration not stated) | -3.2 | 23.1 µM [rising, partial curve] | – |
| NS(=O)(=O)c1ccc(N2CCOCC2)c(C(=O)NCCCSc2ccccc2)c1 | – | 14.6 µM [falling, partial curve, poor fit] | – |
| COc1ccc(CCNC(=O)CCCOc2cccc(C)c2C)cc1OC | – | 7.31 µM [falling, partial curve] | – |
| NS(=O)(=O)c1ccc(NC(=O)Cn2ncc3c2-c2ccccc2OC3)cc1 | -1.22 | 1.03 µM [falling, full curve] | 5.8 µM [falling, partial curve] |
| CC(C)Oc1ccc(C2NC(=O)c3ccccc3O2)cc1 (configuration not stated) | 20.2 | – | – |
| CCOC(=O)N1CCC(NC(=O)CC(NS(=O)(=O)c2ccc(Cl)cc2)c2ccco2)CC1 (configuration not stated) | – | 0.651 µM [rising, single point] | – |
| COc1ccc(NC(=O)Nc2nnc(Cc3ccccc3)s2)cc1 | -4.96 | – | – |
| CCc1nc2cc([N+](=O)[O-])c([N+](=O)[O-])cc2[nH]1 | 20.3 | 0.00461 µM [rising, full curve, poor fit] | – |
| COc1ccc(/C=C2\CCC(C3CCCC3)C2=O)cc1 (configuration not stated) | 12.8 | 29.1 µM [rising, single point] | – |
| COc1cccc(C=Nc2ccc3c(c2)OCCO3)c1O | 0.622 | 6.51 µM [falling, single point] | 0.146 µM [falling, full curve, poor fit] |
| C/C(=N\Nc1ccccc1[N+](=O)[O-])c1ccccc1O | – | 6.51 µM [falling, single point] | – |
| COc1ccccc1NC(=O)COC(=O)CC(C)(C)CC1=NS(=O)(=O)c2ccccc2N1 | – | 29.1 µM [falling, single point] | – |
| CN(CC(=O)Nc1cccc(F)c1)C(=O)CCc1nc2ccccc2c(=O)[nH]1 | 15.6 | 18.4 µM [rising, partial curve] | – |
| Cc1cc(C)n2nc(SCc3nnc(-c4ccc(F)cc4)o3)nc2n1 | 21.9 | – | 4.11 µM [rising, full curve, poor fit] |
| O=C(COC(=O)c1cc(Cl)cc(Cl)c1)NCCN1C(=O)CSC1=O | 39.1 | 3.66 µM [rising, single point] | 9.2 µM [rising, partial curve] |
| CN1C(=O)c2ccccc2C(C(=O)NCCCN2CCCC2=O)C1c1c[nH]c2ccccc12 (configuration not stated) | 33.1 | – | – |
| CCC1CSC(Nc2ccc(C(=O)/C=C/c3cccc(C)c3)cc2)=N1 (configuration not stated) | 17.4 | – | – |
| CC(C)(C)OC(=O)NCCc1nnc(SCc2ccccc2)o1 | 5.85 | – | 0.13 µM [rising, full curve, poor fit] |
| COc1ccc(/C=N\NC(=O)/C(=C\Nc2nccc(C)n2)NC(=O)c2ccccc2)cc1 | – | – | 0.58 µM [rising, partial curve] |

| SMILES | cell number change [%] | AC50 [1] | AC50 [2] |
| --- | --- | --- | --- |
| Cc1oc(-c2ccccc2Cl)nc1CSCC(=O)O | – | 0.461 µM [falling, full curve] | – |
| CC(C)c1ccc(/C=C/C(=O)NC2CCCCC2)cc1 | -49.4 | 23.1 µM [falling, single point] | 29.1 µM [falling, single point] |
| CCc1cccc(CC)c1NC(=O)CSc1nnc(CCC(=O)O)c(=O)[nH]1 | 21.3 | – | – |
| Cc1ccc(NC(=O)CN(C)C(=O)c2ccccc2OCc2c(C)noc2C)cc1 | – | 0.58 µM [falling, single point] | – |
| CC(=O)N1CCc2cc(S(=O)(=O)NCCC(=O)NCCc3ccc(C)cc3)ccc21 | -8.79 | 2.59 µM [rising, full curve] | – |
| C=CCn1c(SCC(=O)NCc2ccccc2)nnc1-c1ccccc1O | -9.51 | 0.00461 µM [falling, full curve, poor fit] | – |
| NC[C@H]1O[C@H](O[C@H]2[C@H](O)[C@@H](O[C@H]3O[C@H](CO)[C@@H](O)[C@H](N)[C@H]3O)[C@H](N)C[C@@H]2N)[C@H](N)C[C@@H]1O | 16 | – | 0.0651 µM [rising, full curve, poor fit] |
| CC(C)(C)CC(C)(C)NC(=S)Nc1ccc2nc(-c3ccccn3)c(-c3ccccn3)nc2c1 | -11.4 | 1.46 µM [rising, partial curve, poor fit] | – |
| O=P(CO)(Cc1ccccc1)Cc1ccccc1 | 34.4 | – | 29.1 µM [rising, single point] |
| Cc1ccc(C2c3c(-c4ccccc4O)n[nH]c3C(=O)N2Cc2ccncc2)cc1 (configuration not stated) | 93.7 | – | 20.6 µM [rising, single point] |
| O=C(CCl)Nc1ccc(N=Nc2ccccc2)cc1 | – | 9.2 µM [falling, partial curve] | – |
| O=C(O)c1ccccc1C(=O)Nc1ccc(S(=O)(=O)NC2CCCCC2)cc1 | -1.31 | 0.013 µM [falling, full curve, poor fit] | – |
| COc1ccc(NC(=O)CC2C(=O)N(C)C(=S)N2CCc2ccccc2F)cc1 (configuration not stated) | – | 0.651 µM [rising, single point] | – |
| COc1cc(-c2cc(=O)c3ccccc3o2)ccc1O | -18.5 | 7.31 µM [falling, partial curve, poor fit] | – |
| Cc1cc(C)cc(N(C(=O)c2csnn2)C(C(=O)NC(C)(C)C)c2cccnc2)c1 (configuration not stated) | -21.6 | 1.46 µM [falling, partial curve, poor fit] | – |
| COC(=O)c1ccc(CNCC(=O)Nc2ccc(C(=O)OC)cc2)cc1 | 2.84 | 0.651 µM [falling, single point] | – |
| O=C(OCc1cc2ccccc2[nH]c1=O)c1ccc([N+](=O)[O-])cc1 | -25.8 | 29.1 µM [falling, single point] | – |
| Cc1ccc(S(=O)(=O)N2CCN(C(=O)C(F)(F)F)C2c2ccc(N(C)C)cc2)cc1 (configuration not stated) | 12.8 | 1.64 µM [falling, partial curve, poor fit] | – |
| Cn1c(C(=O)NCCCN2CCc3ccccc3C2)cc2c(=O)n(C)c3ccccc3c21 | -74 | 0.146 µM [rising, full curve, poor fit] | 18.4 µM [falling, single point] |
| O=C(NNc1ccc(C2CCCCC2)cc1)C(O)(c1ccccc1)c1cccs1 (configuration not stated) | -42.3 | 14.6 µM [falling, single point] | 18.4 µM [falling, single point] |

| SMILES | cell number change [%] | AC50 [1] | AC50 [2] |
| --- | --- | --- | --- |
| COc1ccc(NC(=O)N2CCN(c3cccc(C(F)(F)F)c3)CC2)cc1OC | 10.7 | 14.6 µM [falling, partial curve, poor fit] | – |
| CCOc1cc(/C=C2\CCn3c2nc2cc(Cl)ccc2c3=O)ccc1O | 32.8 | 29.1 µM [falling, single point] | 0.651 µM [rising, full curve, poor fit] |
| COc1ccc2cc(C(c3nnnn3C3CCCC3)N3CCc4ccccc4C3)c(=O)[nH]c2c1 (configuration not stated) | -1.75 | 29.1 µM [rising, single point] | – |
| CCNC(=O)c1ccc(NS(=O)(=O)c2ccc3[nH]c(=O)[nH]c3c2)cc1 | 0.54 | 0.58 µM [falling, single point] | – |
| O=C(O)C1(O)C[C@H](O)C(O)[C@@H](O)C1 (some centres not stated) | – | 0.58 µM [falling, single point] | – |
| CC(C)N=c1scc(-c2ccco2)n1/N=C/c1ccc(O)c(O)c1 | -42.9 | 25.9 µM [falling, single point] | 6.51 µM [falling, partial curve] |
| N#Cc1ccccc1S(=O)(=O)N1CCN(c2nc(-c3cccnc3)nc3ccccc23)CC1 | – | 18.4 µM [falling, partial curve] | – |
| O=C(C1CC(=O)N(c2ccc(F)cc2)C1)N1CCN(c2ccc(F)cc2)CC1 (configuration not stated) | -3.18 | 0.411 µM [falling, single point] | – |
| COc1ccc(-c2noc(COc3ccc(Cl)c(C)c3)n2)cc1 | -6.37 | – | – |
| CC(=C/C(=O)O)/C=C/c1cccs1 | 2.95 | 0.366 µM [falling, full curve] | – |
| O=S(=O)(c1ccc(SCc2ccc(Br)cc2)nc1)N1CCCCC1 | 125 | – | 0.731 µM [rising, full curve, poor fit] |
| COc1ccc(/C=N/NC(=O)c2ccccc2)cc1OS(=O)(=O)c1ccccc1 | – | 0.259 µM [rising, partial curve] | – |
| Cc1csc(=O)n1CC(=O)Nc1nc2ccccc2s1 | -9.4 | 29.1 µM [falling, single point] | – |
| CCOc1nc(SCCOc2ccc(C)cc2)nc(N(C)C)n1 | -34.3 | 18.4 µM [falling, partial curve] | 16.4 µM [falling, single point] |
| COCCNC(=O)c1cc(C(=O)CC(C)C)c[nH]1 | -44.5 | – | 29.1 µM [falling, single point] |
| CCn1c(COc2cccc(OC)c2)nnc1SCC(=O)NCC1CCCO1 (configuration not stated) | 12.8 | 20.6 µM [rising, single point] | – |
| COCCNCC(=O)NC12CC3CC(CC(C3)C1)C2 | 18.9 | 3.26 µM [rising, partial curve, poor fit] | – |
| CCCN1C(=O)/C(=C/c2c(N3CCNC(=O)C3CC(=O)OCC)nc3c(C)cccn3c2=O)SC1=S (configuration not stated) | – | – | 6.51 µM [falling, partial curve, poor fit] |
| CC(NC(=O)COc1ncnc2cc([N+](=O)[O-])ccc12)c1ccccc1 (configuration not stated) | -15.1 | 16.4 µM [rising, single point] | 0.326 µM [falling, partial curve, poor fit] |

Three compounds drawn at random from those above:

| SMILES | cell number change [%] | AC50 [1] | AC50 [2] |
| --- | --- | --- | --- |
| CCNC(=O)c1ccc(NS(=O)(=O)c2ccc3[nH]c(=O)[nH]c3c2)cc1 | 0.54 | 0.58 µM [falling, single point] | – |
| O=S(=O)(c1ccc(SCc2ccc(Br)cc2)nc1)N1CCCCC1 | 125 | – | 0.731 µM [rising, full curve, poor fit] |
| CCn1c(COc2cccc(OC)c2)nnc1SCC(=O)NCC1CCCO1 (configuration not stated) | 12.8 | 20.6 µM [rising, single point] | – |
